The results in this text go back to the supplement of paper PMC3682954.

SMILES strings stand for the structures. Counter-ions that a name gives are not always drawn. ± gives the standard deviation of the averaged measurements. This is one part of the list. Most values come without repeats; read them as rough.

For the assay, the system named is RAW 264.7. The assay is described as follows: HMGB1-induced TNF-alpha production relative to HMGB1-stimulated control; higher = more TNF-alpha secretion (less inhibition). To be noted: stimulus: HMGB1 5 ug/ml, 18 h.
Setting [1] is: compound concentration: 1 ug/ml.

`CCOC(=O)c1ccc(OC(=O)CCCCCNC(=N)N)cc1` [Gabexate mesilate]: under “compound concentration: 3 uM”, the “HMGB1-induced TNF-alpha production” value was determined as 88.8%.

Consider `CCOC(=O)c1ccc(OC(=O)CCCCCNC(=N)N)cc1`, for which the “HMGB1-induced TNF-alpha production” value (compound concentration: 3 uM) worked out at 100%.

Turning to `OC[C@H]1O[C@H]([S-])[C@H](O)[C@@H](O)[C@@H]1O.[Au+]`, the “HMGB1-induced TNF-alpha production” value (compound concentration: 3 uM) is 93.2%.

In the case of `OC[C@H]1O[C@H]([S-])[C@H](O)[C@@H](O)[C@@H]1O.[Au+]` [Aurothioglucose], for the setting “compound concentration: 3 uM”, the “HMGB1-induced TNF-alpha production” value is 110%.

On to `CCCN[C@H]1CCc2nc(N)sc2C1`, for which, where the note is “compound concentration: 3 uM”, the “HMGB1-induced TNF-alpha production” value stood at 100%.

For `CCCN[C@H]1CCc2nc(N)sc2C1` [Pramipexole], the “HMGB1-induced TNF-alpha production” value (compound concentration: 3 uM) stood at 99.4 ± 12%.

On to `CCC(=O)N1CCN(C(=O)c2ccccc2)CC1`, for which the “HMGB1-induced TNF-alpha production” value (compound concentration: 3 uM) was determined as 86.8%.

Take `CNC(=O)c1cc2c(cn1)[nH]c1ccccc12` [N-Methyl-beta-carboline-3-carboxamide]: the “HMGB1-induced TNF-alpha production” value (compound concentration: 3 uM) came out at 81.8%.

`Cc1cc(=O)oc2cc(O)ccc12` [Hymecromone]: the “HMGB1-induced TNF-alpha production” value (compound concentration: 3 uM) stood at 85.4%.

Take `CC(C)C[C@H](NC(=O)[C@@H](COC(C)(C)C)NC(=O)[C@H](Cc1ccc(O)cc1)NC(=O)[C@H](CO)NC(=O)[C@H](Cc1c[nH]c2ccccc12)NC(=O)[C@H](Cc1cnc[nH]1)NC(=O)[C@@H]1CCC(=O)N1)C(=O)N[C@@H](CCCNC(=N)N)C(=O)N1CCC[C@H]1C(=O)NNC(N)=O`: under “compound concentration: 3 uM”, the “HMGB1-induced TNF-alpha production” value stood at 93.5%.

In the case of `CC(C)C[C@H](NC(=O)[C@@H](COC(C)(C)C)NC(=O)[C@H](Cc1ccc(O)cc1)NC(=O)[C@H](CO)NC(=O)[C@H](Cc1c[nH]c2ccccc12)NC(=O)[C@H](Cc1cnc[nH]1)NC(=O)[C@@H]1CCC(=O)N1)C(=O)N[C@@H](CCCNC(=N)N)C(=O)N1CCC[C@H]1C(=O)NNC(N)=O` [Goserelin], the “HMGB1-induced TNF-alpha production” value (compound concentration: 3 uM) was 81.1%.

With `Cn1c(=O)c2nc[nH]c2n(C)c1=O`, the “HMGB1-induced TNF-alpha production” value (compound concentration: 3 uM) turned out to be 92.9%.

With `Cn1c(=O)c2nc[nH]c2n(C)c1=O` [Theophylline], for the setting “compound concentration: 3 uM”, the “HMGB1-induced TNF-alpha production” value was found to be 115%.

Take `Cn1c(=O)c2nc[nH]c2n(C)c1=O` [Theophylline monohydrate]: the “HMGB1-induced TNF-alpha production” value (compound concentration: 3 uM) was 123%.

As to `C=C1c2cccc(O)c2C(=O)C2=C(O)[C@]3(O)C(=O)C(C(N)=O)=C(O)[C@@H](N(C)C)[C@@H]3[C@@H](O)[C@H]12` [Methacycline hydrochloride], the “HMGB1-induced TNF-alpha production” value (compound concentration: 3 uM) stood at 94.1%.

Regarding `C=C1c2cccc(O)c2C(=O)C2=C(O)[C@]3(O)C(=O)C(C(N)=O)=C(O)[C@@H](N(C)C)[C@@H]3[C@@H](O)[C@H]12`, under “compound concentration: 3 uM”, the “HMGB1-induced TNF-alpha production” value came out at 103%.

As to `COc1cccc(-c2cc(=O)c3cc(O)ccc3o2)c1`, the “HMGB1-induced TNF-alpha production” value under setting [1] was 62.5%.

As for `c1ccc(C2CN3CCSC3=N2)cc1` (stereo not drawn) [Tetramisole hydrochloride], under “compound concentration: 3 uM”, the “HMGB1-induced TNF-alpha production” value is 79.9 ± 23%.

`c1ccc(C2CN3CCSC3=N2)cc1` (stereo not drawn): the “HMGB1-induced TNF-alpha production” value (compound concentration: 3 uM) came to 93.9%.

With `COc1cc2cc3c4cc(OC)c(OC)cc4cc[n+]3c(C)c2cc1OC`, the “HMGB1-induced TNF-alpha production” value (compound concentration: 3 uM) worked out at 102%.

As to `CC(COc1ccc(/C=C/c2ccccc2)cc1)[N+](C)(C)C` (stereo not drawn), the “HMGB1-induced TNF-alpha production” value (compound concentration: 3 uM) was 93.4%.

Take `CC[C@]1(O)C[C@@H]2CN(CCc3c([nH]c4ccccc34)[C@@](C(=O)OC)(c3cc4c(cc3OC)N(C)[C@H]3[C@@](O)(C(N)=O)[C@H](O)[C@]5(CC)C=CCN6CC[C@]43[C@@H]65)C2)C1` [Vindesine]: the “HMGB1-induced TNF-alpha production” value (compound concentration: 3 uM) stood at 130%.

`CC[C@]1(O)C[C@@H]2CN(CCc3c([nH]c4ccccc34)[C@@](C(=O)OC)(c3cc4c(cc3OC)N(C)[C@H]3[C@@](O)(C(N)=O)[C@H](O)[C@]5(CC)C=CCN6CC[C@]43[C@@H]65)C2)C1`: the “HMGB1-induced TNF-alpha production” value (compound concentration: 3 uM) turned out to be 120%.

Consider `O=C(N[C@@H](Cc1ccccc1)C(=O)CCl)OCc1ccccc1` [Z-L-Phe chloromethyl ketone], for which, for the setting “compound concentration: 3 uM”, the “HMGB1-induced TNF-alpha production” value was 19.6%.

Consider `Cc1cc2c(cc1Cl)N(C(=O)Nc1ccc(Oc3cccnc3C)nc1)CC2`, for which the “HMGB1-induced TNF-alpha production” value (compound concentration: 3 uM) worked out at 106%.

`Cc1scc2c1N(C(=O)CN1CCN(C)CC1)c1ccccc1NC2=O` [Telenzepine dihydrochloride]: the “HMGB1-induced TNF-alpha production” value (compound concentration: 3 uM) worked out at 84.2 ± 20%.

As to `Cc1scc2c1N(C(=O)CN1CCN(C)CC1)c1ccccc1NC2=O` [Telenzepine], the “HMGB1-induced TNF-alpha production” value (compound concentration: 3 uM) is 112%.

For the compound `Cc1scc2c1N(C(=O)CN1CCN(C)CC1)c1ccccc1NC2=O`, the “HMGB1-induced TNF-alpha production” value (compound concentration: 3 uM) amounted to 79.4%.

In the case of `CSCC[C@H](N)C(=O)Nc1ccc2c(C)cc(=O)oc2c1` [L-Methionine 7-amido-4-methylcoumarin trifluoroacetate salt], the “HMGB1-induced TNF-alpha production” value under setting [1] came to 70.6%.

For `CN(C)CCC(c1ccc(Cl)cc1)c1ccccn1` (single isomer, unassigned; (+)) [(+)-Chlorpheniramine maleate], the “HMGB1-induced TNF-alpha production” value (compound concentration: 3 uM) was 74.7%.

In the case of `CO/N=C(\C(=O)N[C@@H]1C(=O)N2C(C(=O)O)=C(CSc3nc(=O)c(O)nn3C)CS[C@H]12)c1csc(N)n1` [Ceftriaxone sodium], the “HMGB1-induced TNF-alpha production” value (compound concentration: 3 uM) came to 78.8%.

Turning to `CO/N=C(\C(=O)N[C@@H]1C(=O)N2C(C(=O)O)=C(CSc3nc(=O)c(O)nn3C)CS[C@H]12)c1csc(N)n1`, the “HMGB1-induced TNF-alpha production” value (compound concentration: 3 uM) worked out at 97.8%.

Take `Oc1ccccc1O` [Pyrocatechol]: the “HMGB1-induced TNF-alpha production” value (compound concentration: 3 uM) is 84.6%.

As to `COc1cccc(NC(=O)/C=C/c2ccc(Cl)cc2)c1`, the “HMGB1-induced TNF-alpha production” value (compound concentration: 3 uM) was found to be 95.8%.

Regarding `COc1cccc(-c2oc3ccccc3c(=O)c2O)c1`, the “HMGB1-induced TNF-alpha production” value under setting [1] was determined as 76.8%.

On to `FC(F)(F)c1ccccc1-n1ccnc1` [1-[2-(Trifluoromethyl)phenyl]imidazole], for which the “HMGB1-induced TNF-alpha production” value (compound concentration: 3 uM) was found to be 94%.

With `COc1ccc(CCN(C)CCCC(C#N)(c2cc(OC)c(OC)c(OC)c2)C(C)C)cc1OC` (racemic) [(±)-Methoxyverapamil hydrochloride], the “HMGB1-induced TNF-alpha production” value (compound concentration: 3 uM) was determined as 115%.

In the case of `CCCCOC(=O)NS(=O)(=O)c1sc(CC(C)C)cc1-c1ccc(Cn2c(CC)nc3c(C)cc(C)nc32)cc1`, the “HMGB1-induced TNF-alpha production” value (compound concentration: 3 uM) turned out to be 115%.
